The text below walks through data of patent publication US7381537B2 (Probiodrug AG, priority 2003, dated 2008).

A short description of data set [1]: general procedure: Fmoc solid-phase peptide synthesis; Rink amide MBHA; HMBA-AM; TBTU/base (DIPEA or NMM); HATU/DIPEA for difficult couplings. As to conditions: whole synthesis, scale of the general procedure 0.5 mmol, 25 μmol for longer peptides.
The nature of data set [2]: general procedure: Fmoc solid-phase peptide synthesis; Rink amide MBHA; TBTU/base (DIPEA or NMM); HATU/DIPEA for difficult couplings. As to conditions: whole synthesis, scale of the general procedure 0.5 mmol, 25 μmol for longer peptides.

Ends that are not written are not given here. * marks the point of attachment. NHNH2 = NN*

In data set [1], E(NHNH2)SPTA-NH2 showed a crude yield of 76% yield.
Regarding H-Gln-Lys(Gln)-Arg-Leu-Ala-NH2, the crude yield in data set [2] worked out at 95% yield.
